Measurements reported in PubChem BioAssay AID1259424 (University of Nebraska Medical Center, 2018)

- Aim: 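Rank knockdowns across the genome by resemblance to the KSR1 depletion profile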 (primary screen)
- System: human HCT116 colon cancer cells
- Reagent: siRNA pool against human genes, 50 nM
- Detection: 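Log2 levels of six mRNAs (branched-DNA multiplex), adjusted by two reference genes and the non-targeting median, then scored against the average KSR1 knockdown pattern as Pearson r and euclidean distance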
- Scale: mean correlation with KSR1 profile: higher = expression change more like KSR1 knockdown
In all, the deposit lists about 14,000 reagents; shown is a random part of them. 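Higher correlation or smaller distance means closer resemblance to KSR1 loss; control wells, including KSR1 knockdowns, recur on many plates.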 A reagent listed more than once was tested more than once; the source does not tell the runs apart. Not all columns of the deposit are shown. Reagent sequences are not shown. Not given: the time to read-out.

KHDRBS1
- mean correlation with KSR1 profile: 0.353

PARP14
- mean correlation with KSR1 profile: -0.245

PLEKHO1
- mean correlation with KSR1 profile: -0.202

GLB1
- mean correlation with KSR1 profile: 0.203

ZNF224
- mean correlation with KSR1 profile: 0.644

ZNF224
- mean correlation with KSR1 profile: 0.491

SLC6A13
- mean correlation with KSR1 profile: 0.204

Continued, starting with the last 2 of the part before.
ZNF224
- mean correlation with KSR1 profile: 0.491

SLC6A13
- mean correlation with KSR1 profile: 0.204

TM9SF4
- mean correlation with KSR1 profile: -0.139

KIF26B
- mean correlation with KSR1 profile: -0.588

TTLL7
- mean correlation with KSR1 profile: 0.35

PRRT1
- mean correlation with KSR1 profile: -0.381

CBFB
- mean correlation with KSR1 profile: 0.108
